For at least one compound, name, drawing or mass did not settle the structure.
Experiments:
[1] = molecular target: Ca^2+ channel (L, verapamil site) (phenylalkylamines); assay: Ca^2+ channel (L, verapamil site) binding assay; parameters: species or system rat
[2] = tested on: Na^+ channel (site 2); type: binding, rat; details: Hill coefficient, reference compound
[3] = tested on: Adenylyl cyclase (basal); assay: Adenylyl cyclase (basal) enzyme assay; type: biochemical, rat; details: reference compound

COc1ccc(CCN(C)CCCC(C#N)(c2cc(OC)c(OC)c(OC)c2)C(C)C)cc1OC (stereo not shown) [D 600]
IC50 [1]: 5.OE−09 M

COc1ccc(C(=O)O[C@H]2CC[C@@]3(C)[C@@H]4CC[C@H]5[C@]6(O)C[C@H](O)[C@@]7(O)[C@@H](CN8C[C@@H](C)CC[C@H]8[C@@]7(C)O)[C@]6(O)C[C@@]53O[C@]24O)cc1OC [veratridine, reference compound]
nH [2]: 1.1

C=C[C@@]1(C)CC(=O)[C@]2(O)[C@@]3(C)[C@@H](O)CCC(C)(C)[C@@H]3[C@H](O)[C@H](OC(C)=O)[C@@]2(C)O1 [forskolin]
nH ([3]; Hill coefficient): 1.0
EC50 [3]: 11 µM

From patent US20090264384A1, “INDOLE, BENZIMIDAZOLE, AND BENZOLACTAM BORONIC ACID COMPOUNDS, ANALOGS THEREOF AND METHODS OF USE THEREOF” (Nuada, Inc., priority 2004, published 2009)
